Results taken from paper PMC12155308, “Inhibiting Infectious Bronchitis Virus PLpro Using Ubiquitin Variants” (International Journal of Molecular Sciences, 2025).

Tests used:
[1] = target: T1, His6-IBV PLpro, Beaudette strain (papain-like protease domain of nsp3) (avian infectious bronchitis virus, …, UniProt P0C6Y1 1348-1659); assay: cell-based or functional assay
T1 sequence: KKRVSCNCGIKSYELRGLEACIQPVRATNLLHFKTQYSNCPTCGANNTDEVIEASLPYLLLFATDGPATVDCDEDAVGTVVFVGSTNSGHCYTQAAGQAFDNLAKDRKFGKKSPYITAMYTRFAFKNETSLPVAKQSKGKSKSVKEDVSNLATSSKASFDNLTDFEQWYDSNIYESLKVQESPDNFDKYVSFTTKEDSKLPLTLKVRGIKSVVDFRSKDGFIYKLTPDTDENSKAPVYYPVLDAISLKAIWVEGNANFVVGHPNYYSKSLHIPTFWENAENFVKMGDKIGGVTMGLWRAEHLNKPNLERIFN

[2] = target: the molecule itself; assay: SEC; Superdex 75; 50 mM Tris-HCl pH 7.5, 50 mM NaCl, 1 mM DTT; two peaks with different retention times

| Binder | IBV Beaudette titer (plaque assay) from FLAG-UbV-transfected DF-1 cells, MOI 0.5, 24 hpi, against the GFP control [1] [fold decrease] | stoichiometry N [2] |
| --- | --- | --- |
| UbV.IBV.8 (designed binder) MLIFVKTFTRNTIALEVEPSDTIENVKAKIQDKEGIPPDQQRLIFAGKQLEDGRTLSDYNIQNESWLHLLRSLLSPTH | 2 | – |
| UbV.IBV.1, recombinant, His-tagged (designed binder, also called UbV 1; UbV 1 monomer; source: E. coli BL21 (DE3), purified (Ni-NTA, Superdex 75 SEC)) MQIFVKTISAKTITLEVEPSDTIENVKAKIQDKEGIPPDQQGLMFAGKFLEDGRTLSDYNIPKESTLHLLMRLRGRSV | – | 2 |
